The target of experiment [1] is Rcc1, the Ran guanine exchange factor (human (endogenous in HeLa)) (UniProt P18754). Nature of the experiment: co-IP.
Experiment [2] concerns the target C-terminally Strep-tagged PB2 of recombinant influenza A virus WSN (rWSN-PB2-Strep) (influenza A virus strain WSN (A/WSN/33)) (UniProt P03427). Nature of the experiment: pull-down.

Amino acid sequences for entries named in this document (tags omitted).
UniProt P18754: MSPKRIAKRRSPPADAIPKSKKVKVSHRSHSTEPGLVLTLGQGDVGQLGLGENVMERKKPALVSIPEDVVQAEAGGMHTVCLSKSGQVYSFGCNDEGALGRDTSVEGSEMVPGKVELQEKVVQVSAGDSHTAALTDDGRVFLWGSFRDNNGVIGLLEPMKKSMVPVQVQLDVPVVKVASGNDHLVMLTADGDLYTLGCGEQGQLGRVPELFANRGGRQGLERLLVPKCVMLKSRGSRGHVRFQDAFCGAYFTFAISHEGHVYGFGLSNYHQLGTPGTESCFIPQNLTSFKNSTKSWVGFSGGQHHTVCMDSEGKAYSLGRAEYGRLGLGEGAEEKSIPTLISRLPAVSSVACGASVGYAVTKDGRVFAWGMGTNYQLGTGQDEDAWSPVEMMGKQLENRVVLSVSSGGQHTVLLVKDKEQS
UniProt P03427: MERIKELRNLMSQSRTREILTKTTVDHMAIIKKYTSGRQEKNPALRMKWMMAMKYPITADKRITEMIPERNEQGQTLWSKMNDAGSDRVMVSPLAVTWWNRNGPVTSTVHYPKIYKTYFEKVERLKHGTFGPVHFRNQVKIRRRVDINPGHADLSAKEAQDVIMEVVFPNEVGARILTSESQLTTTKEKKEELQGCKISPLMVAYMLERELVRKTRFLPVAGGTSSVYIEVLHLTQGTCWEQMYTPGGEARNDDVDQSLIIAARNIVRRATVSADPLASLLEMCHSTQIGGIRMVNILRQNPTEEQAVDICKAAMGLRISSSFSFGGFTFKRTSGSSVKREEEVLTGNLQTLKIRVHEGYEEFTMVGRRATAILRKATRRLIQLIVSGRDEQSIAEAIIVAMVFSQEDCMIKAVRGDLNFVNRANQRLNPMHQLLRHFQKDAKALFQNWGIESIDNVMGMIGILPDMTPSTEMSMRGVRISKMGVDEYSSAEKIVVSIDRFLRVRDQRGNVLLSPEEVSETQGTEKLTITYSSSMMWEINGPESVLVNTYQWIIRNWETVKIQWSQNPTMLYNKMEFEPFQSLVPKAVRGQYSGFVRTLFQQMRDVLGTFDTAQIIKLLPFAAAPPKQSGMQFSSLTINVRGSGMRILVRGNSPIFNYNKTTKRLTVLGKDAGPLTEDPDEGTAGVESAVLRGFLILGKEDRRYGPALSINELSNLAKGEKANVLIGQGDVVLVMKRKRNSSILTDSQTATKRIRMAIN
UniProt P05777: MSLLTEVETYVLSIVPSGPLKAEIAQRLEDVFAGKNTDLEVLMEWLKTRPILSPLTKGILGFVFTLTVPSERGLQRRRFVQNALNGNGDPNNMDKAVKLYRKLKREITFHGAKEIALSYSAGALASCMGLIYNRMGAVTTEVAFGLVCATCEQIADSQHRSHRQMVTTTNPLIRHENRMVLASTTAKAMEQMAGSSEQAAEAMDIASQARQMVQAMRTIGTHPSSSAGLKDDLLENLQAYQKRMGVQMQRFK
UniProt P15682: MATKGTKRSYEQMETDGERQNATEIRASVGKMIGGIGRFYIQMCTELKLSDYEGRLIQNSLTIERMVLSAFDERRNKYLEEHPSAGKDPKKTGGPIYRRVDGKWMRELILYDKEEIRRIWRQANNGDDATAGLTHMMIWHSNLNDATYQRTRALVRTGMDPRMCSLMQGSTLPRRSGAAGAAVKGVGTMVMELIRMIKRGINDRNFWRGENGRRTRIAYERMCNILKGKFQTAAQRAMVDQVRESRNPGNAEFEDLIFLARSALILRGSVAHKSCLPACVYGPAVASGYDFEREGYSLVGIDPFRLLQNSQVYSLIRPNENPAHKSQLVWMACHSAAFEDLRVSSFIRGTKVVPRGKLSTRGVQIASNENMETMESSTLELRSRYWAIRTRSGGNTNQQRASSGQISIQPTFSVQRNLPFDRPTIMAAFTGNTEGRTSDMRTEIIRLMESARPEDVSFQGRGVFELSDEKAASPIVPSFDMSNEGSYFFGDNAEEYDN

These are yes or no findings as the source states them, for the method shown. In cells and extracts the contact can be indirect. Some binding calls cover weakened binding; strength is not graded here.

For “influenza A virus (WSN) matrix protein M1 (from UniProt P05777 1-252)”, the binding entry in experiment [1] was “binds”. For the substance “influenza A virus (WSN) nucleoprotein NP (from UniProt P15682 1-498)”, the binding result in experiment [1] and in experiment [2] was “binds” throughout.

Source of the values: publication PMC3164630.
